Results on 26 molecules are retold here after the supplement of paper PMC8256030.

Where “and” joins values, the source holds several entries; their conditions need not be identical. Identical values can stand only once. The list shows a part of the results. Single values are uncertain here, since repeats match poorly.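 HEK293T cells were given each compound shortly before transfection with a reporter in which red mCherry is followed by the SARS-CoV-2 frameshift element and then GFP in the −1 frame, so GFP appears only after frameshifting.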

The subject of this assay is SARS-CoV-2 -1 PRF reporter mCherry-FSE-GFP(-1). Put plainly: percent effect, decrease of GFP/mCherry ratio (-1 PRF reporter) relative to controls; higher = stronger frameshift inhibition. The conditions noted are these: 10 µM; 24 h; HEK293T.
`CCn1cc(C(=O)O)c(=O)c2cc(F)c(N3CCNCC3)nc21` [enoxacin]: the percent effect was -4.46% and 4.23%.

For `C[C@@H]1O[C@@H]1P(=O)(O)O` [fosfomycin], the percent effect is -1.43% and -3.25% and -1.5%. Take `CCCCCOC(=O)Nc1nc(=O)n([C@@H]2O[C@H](C)[C@@H](O)[C@H]2O)cc1F` [capecitabine]: the percent effect was 0.248% and 5.02%.

In the case of `c1ccc(-c2ccc(C(c3ccccc3)n3ccnc3)cc2)cc1` (stereo unspecified) [bifonazole], the percent effect was 2.27% and -6.76%. Take `CN(C)CCCC1(c2ccc(F)cc2)OCc2cc(C#N)ccc21` (stereo unspecified) [citalopram]: the percent effect is 4.72% and -7.14%. Consider `CN(C)C(=O)C(CCN1CCC(O)(c2ccc(Cl)cc2)CC1)(c1ccccc1)c1ccccc1` [loperamide], for which the percent effect is -3.76% and -8.8%. Consider `CCCCNC(=O)NS(=O)(=O)c1ccc(C)cc1` [tolbutamide], for which the percent effect is -0.886% and -9.62%. Turning to `COc1ccc(CN2CCN(C(c3ccc(F)cc3)c3ccc(F)cc3)CC2)c(OC)c1OC` [lomerizine], the percent effect was -2.41% and -8.53%. `O=C(c1ccc(F)cc1)C1CCN(CCn2c(=O)[nH]c3ccccc3c2=O)CC1` [ketanserin]: the percent effect was -0.887% and -4.09%. The figure for `CCN(CC)C(=O)/C(C#N)=C/c1cc(O)c(O)c([N+](=O)[O-])c1` [entacapone] is -0.182% and -3.22% and -1.68%; for `Cc1ccc(C)c(OCCCC(C)(C)C(=O)O)c1` [gemfibrozil] it is -0.962% and -7.54%; for `Cc1c(-c2cnccn2)ssc1=S` [oltipraz] it is 4.27% and -6.1%. The same measure for `O=C(O)COC(=O)Cc1ccccc1Nc1c(Cl)cccc1Cl` [aceclofenac]: 2.24% and -1.84%. Regarding `O=C(O)c1ccccc1Nc1cccc(C(F)(F)F)c1` [flufenamic acid], the percent effect is 2.95% and -0.283%. The same measure for `Nc1ccc(O)c(C(=O)O)c1` [mesalazine]: -4.68% and 0.743%; for `COc1ccc2[nH]c([S@@+]([O-])Cc3ncc(C)c(OC)c3C)nc2c1` [esomeprazole]: -1.77% and -9%.

Consider `COc1c(C)c2c(c(O)c1C/C=C(\C)CCC(=O)O)C(=O)OC2` [mycophenolic acid], for which the percent effect was -9.2% and -13.7%. For the molecule `CN1[C@@H](CC(=O)c2ccccc2)CCC[C@H]1C[C@H](O)c1ccccc1` [lobeline], the percent effect is 3.69% and -0.2%. On to `Clc1ccc(COC(Cn2ccnc2)c2ccc(Cl)cc2Cl)c(Cl)c1` (stereo unspecified) [miconazole], for which the percent effect is -8.18% and -7.68%. For `CCOC(=O)C1=C(C)NC(C)=C(C(=O)OC)C1c1cccc(Cl)c1Cl` (stereo unspecified) [felodipine], the percent effect is -1.46% and 1.57%. Consider `CC(=O)Nc1ccc(CC(=O)O)cc1` [actarit], for which the percent effect is 1.11% and 3.88%. As to `CCCOc1ccc2[nH]c(NC(=O)OC)nc2c1` [oxibendazole], the percent effect was -10% and -7.44%. Consider `COCCOC(=O)C1=C(C)NC(C)=C(C(=O)OC(C)C)C1c1cccc([N+](=O)[O-])c1` (stereo unspecified) [nimodipine], for which the percent effect is 0.0676% and -3.32%. Regarding `Cc1cn([C@@H]2C[C@@H](O)[C@H](CO)O2)c(=O)[nH]c1=O` [telbivudine], the percent effect is -4.22% and -3.45%. In the case of `CN[C@@H]1[C@@H](O[C@H]2O[C@H](CO)[C@@H](N)[C@H](O)[C@H]2O)OC2C[C@@H](N)[C@@H](O[C@H]3[C@H](O)[C@@H](O)[C@H](N)C[C@@H]3N)OC2[C@@H]1O` (stereo partly specified) [apramycin], the percent effect was 2.68% and -9.01%.

Consider `NCCC[C@H](N)C(=O)O` [ornithine], for which the percent effect is -1.15% and -4.13% and -2.76%.
